Laboratory results: paper PMC9657007

Target: T1, EcxR (UniProt Q2GG40)
T1 sequence (looked up): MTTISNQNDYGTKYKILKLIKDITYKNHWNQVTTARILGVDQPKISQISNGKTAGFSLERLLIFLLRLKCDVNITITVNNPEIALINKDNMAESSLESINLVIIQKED
Assay: EMSA
Settings: poly dI-dC, abolished by cold competitor; EMSA: 10 mM Tris-HCl pH 7.5, 50 mM KCl, 5 mM MgCl2, 2.5% glycerol, 1 mM DTT, 50 ug/mL poly dI-dC, 20 fmol probe, room temperature 25 min (20 min in Fig 4 legend); recombinant protein; residues 1-108; protein details: pET32a fusion tags (rEcxR 29.6 kDa with tags); label: 5' biotin (forward); probe letters rebuilt from the primers and the genome

Question: Does “ACTACTATTAATTTTCTTGAAAATTTAATATATTAGAATTGGTATTAATAATACTATATAAAACATAAATGGAAAAAATTACCACAAACATTTAAACACAACATTTAAAGTGTTGTTATTACCAAATACTTACTAAATTTTGTATTTATGATAATATCATAATAGTTTTACTAAAAAAAATTACAAAAAATGTTATTATCTACTTAAAATTGCAGATTAATTAATAATGCTTTAAGTAATAACAAATAAATTTAGTTGACTATATGAACTAACCTAATATCCTAAATCTTGTTCAGTTATGTAAAATTAGGAGTTAAAATTA (double strand) [hup promoter EMSA probe]” bind?
Answer: binds

Where a protein sequence is shown, tags need not be part of it.
